Reference: PubChem BioAssay AID540276 (National Center for Advancing Translational Sciences (NCATS), 2011)
The campaign covered roughly 300,000 compounds. About 5,400 (1.8%) were called active. Inconclusive means that the source gave no clear call. Such entries were picked first, then a sample of the others. Calls follow the shape of the full dose curve; tested in HEK293 cells. Potencies of inconclusive entries are doubtful fits and often do not repeat.
Potency is read from the fitted curve at half-maximal effect.

Test: qHTS for inhibitors of binding or entry into cells for Marburg Virus
Conditions: Marburg virus pseudotyped entry inhibition, cell reporter; series mostly up to 37.8 µM
For `CCn1c(SCc2ccc([N+](=O)[O-])cc2)nnc1C(C)NC(=O)c1ccc(C)cc1` (configuration not stated), the Potency was “inactive”. With `CC(C)c1ccc2oc(=O)cc(CN3CCN(c4ccc(F)cc4)CC3)c2c1` the Potency was inconclusive: 22.4 µM [inhibitor, single point]. In the case of `Cc1ccc(CNC(=O)CCSCCC(=O)NCc2ccc(C)cc2)cc1`, the Potency was “inactive”. With `O=C(C1CCN(S(=O)(=O)c2cccnc2)CC1)N1CCN(c2ccc(Cl)cc2)CC1` the Potency was “inactive”. For `O=C(Nc1ccccc1)NC1CCN(Cc2c(F)cccc2Cl)CC1`, the Potency was inconclusive: 10 µM [inhibitor, partial curve, poor fit]. For `CCC1CCCCN1C(=O)CSc1nnc(-c2ccc(Cl)s2)o1` (configuration not stated), the Potency was inconclusive: 35.5 µM [activator, partial curve, poor fit]. For `O=C(CNC(=O)C(c1ccccc1)c1ccccc1)OCc1ccccc1`, the Potency was “inactive”. In the case of `CCCCCc1ccc(C(=O)CCCC)c(=S)[nH]1`, the Potency was inconclusive: 25.9 µM [inhibitor, single point]. For `CCOc1ccc(CN(C)CC(=O)Nc2cc(OC)c([N+](=O)[O-])cc2C)cc1`, the Potency was “inactive”. In the case of `CCOc1ccccc1CNC(=O)CCC(=O)N1Cc2ccccc2Oc2ncccc21`, the Potency was inconclusive: 7.08 µM [inhibitor, partial curve, poor fit]. With `C[C@H]1[C@H](OC(=O)CCC(=O)NCc2ccc(C(=O)O)cc2)O[C@@H]2O[C@@]3(C)CC[C@H]4[C@H](C)CC[C@@H]1C24OO3` the Potency was inconclusive: 6.31 µM [inhibitor, full curve, poor fit]. For `Cc1c(N)cc[n+](CC(=O)c2ccccc2)c1C`, the Potency was “inactive”. In the case of `Cn1nc(C(F)(F)F)c(/C=N/OC(=O)c2ccccc2)c1Sc1ccc(Cl)cc1`, the Potency was inconclusive: 35.5 µM [inhibitor, single point]. With `Cc1c(C(=O)N(Cc2ccc(N(C)C)cc2)CC2CCCO2)oc2ccc(Br)cc12` (configuration not stated) the Potency was inconclusive: 35.5 µM [inhibitor, single point]. With `CC(=O)c1cccc(NC(=O)CSc2ccc(-c3sc(C)nc3C)nn2)c1` the Potency was inconclusive: 15.8 µM [inhibitor, single point]. With `Nc1n[nH]c(N)c1N=Nc1cccc(F)c1` the Potency was “inactive”. With `CC(C)NC[C@H](O)COc1cccc2ccccc12` the Potency was active: 14.6 µM. For `CCN1CCN(c2cc(C)c3cc(NC(=O)c4ccccc4F)ccc3n2)CC1`, the Potency was inconclusive: 15.8 µM [activator, single point]. In the case of `O=C(c1ccccc1)c1ccc(-c2ccc(O)cc2)cc1`, the Potency was inconclusive: 8.91 µM [inhibitor, partial curve, poor fit]. For `CCc1c(C)c2ccc(O)c(CN3CCN(c4ccccc4)CC3)c2oc1=O`, the Potency was inconclusive: 12.6 µM [activator, partial curve, poor fit]. In the case of `CCOC(=O)CS(=O)(=O)c1ccc(C(F)(F)F)cn1`, the Potency was inconclusive: 0.199 µM [activator, partial curve, poor fit]. With `Cc1cccc(N(Cc2cc3ccccc3[nH]c2=O)C(=O)c2cccs2)c1` the Potency was “inactive”. In the case of `Cc1ccc(C(=O)CSc2nc3cc(S(=O)(=O)N4CCOCC4)ccc3o2)cc1`, the Potency was “inactive”. With `CCOc1ccc2oc(=O)cc(CN3CCN(c4ccc(Cl)cc4)CC3)c2c1` the Potency was “inactive”. In the case of `NC(=O)c1ccc(NC(=O)COC(=O)CCC2CCCCC2)cc1`, the Potency was inconclusive: 0.794 µM [inhibitor, single point]. In the case of `COc1ccc(OCc2cc(C(=O)N3C[C@H]4CC[C@H]3C4)no2)c(Cl)c1`, the Potency was “inactive”. In the case of `COc1ccccc1N1CCN(c2cc(C)nc3nc(-c4ccc(Cl)cc4)nn23)CC1`, the Potency was “inactive”. With `COc1nc(-c2ccc(C)cc2)ccc1-c1noc(-c2ccc(C(C)(C)C)cc2)n1` the Potency was “inactive”. In the case of `CCOc1cccc2cc(-c3csc(NC(=O)CCC(=O)NCCN4CCCCC4C)n3)c(=O)oc12` (configuration not stated), the Potency was inconclusive: 15.8 µM [inhibitor, partial curve, poor fit]. With `Cc1ccc(C(=O)N2CCN(C3c4cccc5cccc(c45)C3NS(=O)(=O)c3ccccc3)CC2)cc1` (configuration not stated) the Potency was active: 11.2 µM. With `CN(C)c1ccc(/C=N/NC(=O)c2ccc(Cl)cc2)cc1` the Potency was “inactive”. With `Cn1cnnc1SCc1ccc(C(=O)NN)cc1` the Potency was “inactive”. In the case of `COCCn1nnnc1C(c1ccc(OC)cc1)N1CCN(c2ccccc2F)CC1` (configuration not stated), the Potency was inconclusive: 5.62 µM [inhibitor, single point]. For `COc1ccccc1NC(=O)Cn1cncc1-c1ccc([N+](=O)[O-])cc1`, the Potency was inconclusive: 35.5 µM [inhibitor, single point]. With `O=C(c1cc(-n2cnnc2)ccc1Cl)N1CCN(c2nc(-c3ccccc3)cs2)CC1` the Potency was inconclusive: 14.1 µM [inhibitor, partial curve, poor fit]. With `Cc1cccc(NC(=O)c2ccc3c(=O)n4c(nc3c2)CCCCC4)n1` the Potency was inconclusive: 14.1 µM [inhibitor, partial curve, poor fit]. For `COc1cc(S(=O)(=O)Nc2cccc(C)c2)ccc1N=Cc1c(C)[nH]n(-c2ccccc2)c1=O`, the Potency was “inactive”. In the case of `Cc1ccc(S(=O)(=O)Cn2nnnc2CN2CCCC3(CCCCC3)C2)cc1`, the Potency was inconclusive: 13 µM [inhibitor, partial curve, poor fit]. For `O=[N+]([O-])c1ccc(/C=[N+](\[O-])[C@@H]2CCCC[C@@H]2/[N+]([O-])=C/c2ccc([N+](=O)[O-])o2)o1`, the Potency was inconclusive: 17.8 µM [inhibitor, single point]. In the case of `COc1ccc(O[C@H]2C=C[C@@H](c3ccccc3)O[C@@H]2COC(=O)CC/C(C)=N/OCC[C@@H]2C=C[C@H](OC(C)=O)[C@@H](COC(C)=O)O2)cc1`, the Potency was inconclusive: 0.006 µM [activator, full curve, poor fit]. With `Cc1ccn2cc(C(=O)Nc3cccc(C(=O)NC4CC4)c3)nc2c1` the Potency was inconclusive: 35.5 µM [inhibitor, single point]. In the case of `O=S1(=O)CCC(NC(=S)NC2CCS(=O)(=O)C2)C1` (configuration not stated), the Potency was inconclusive: 35.5 µM [activator, single point]. In the case of `CC(C)(C)c1ccc(-c2noc(CCC(=O)Nc3cccc(Cl)c3)n2)cc1`, the Potency was inconclusive: 1.26 µM [inhibitor, full curve, poor fit]. In the case of `O=C(Nc1ccnn1C1CCN(Cc2ccc(Cl)cc2)CC1)C1CCCC1`, the Potency was “inactive”. In the case of `COC(=O)[C@H](COC(C)(C)C)NC(=O)O[C@@H]1C(=O)c2ccc(OC)cc2O[C@H]1c1ccc2c(c1)OCO2`, the Potency was inconclusive: 0.0237 µM [inhibitor, full curve, poor fit]. With `CC(C)OC(=O)CSc1nc2ncc(Cl)cc2[nH]1` the Potency was inconclusive: 22.4 µM [activator, single point]. For `Cc1cccc(N(C(=O)C(F)(F)F)C(C(=O)NC2CCCCC2)c2cccs2)c1` (configuration not stated), the Potency was inconclusive: 25.9 µM [inhibitor, single point]. For `O=C(c1ccco1)N1CCN(C(=O)C(c2ccccc2)c2ccccc2)CC1`, the Potency was inconclusive: 35.5 µM [inhibitor, single point]. For `O=C(O)c1nnsc1-c1csnn1`, the Potency was inconclusive: 20 µM [activator, single point]. For `CCOC(=O)N1CCN(C(=O)CN(c2cc(C)ccc2OC)S(=O)(=O)c2ccc(C)cc2)CC1`, the Potency was “inactive”. In the case of `CCOc1cc(C=NN=C2c3ccccc3-c3ccccc32)ccc1O`, the Potency was inconclusive: 12.6 µM [activator, single point]. For `Cc1oc(=O)c(NC(=O)c2ccc(Cl)cc2)cc1C(=O)c1ccccc1`, the Potency was inconclusive: 10.3 µM [inhibitor, partial curve, poor fit]. For `Cc1ccc(Cn2c(C)c(CNC(C)c3ccccc3)c(C(=O)O)c2C)cc1` (configuration not stated), the Potency was inconclusive: 11.2 µM [activator, partial curve, poor fit]. With `COC(=O)c1sc(NC(=O)c2ccoc2C)nc1C` the Potency was “inactive”. For `Cc1ccccc1COc1ccc(-c2nn[nH]n2)cc1`, the Potency was inconclusive: 31.6 µM [inhibitor, single point]. With `O=C(c1ccc(CS(=O)(=O)c2c(Cl)cccc2Cl)o1)N1CCN(c2ccccc2)CC1` the Potency was inconclusive: 22.4 µM [inhibitor, single point]. For `Cc1ccc(Nc2nc(N3CCOCC3)c3ccccc3n2)cc1`, the Potency was inconclusive: 14.1 µM [inhibitor, single point]. With `O=C(NC1CCCCC1)N(Cc1cc2cc3c(cc2[nH]c1=O)OCCO3)C1CCCCC1` the Potency was inconclusive: 18.3 µM [inhibitor, partial curve, poor fit]. For `COc1cccc(NC(=O)Cn2cc(C#N)c3ccccc32)c1`, the Potency was “inactive”. For `O=C(O)CCCC(=O)Nc1ccccc1C(=O)N1CCOCC1`, the Potency was inconclusive: 6.31 µM [inhibitor, single point]. With `C[C@H]1O[C@@H](n2cc(F)c(=O)[nH]c2=O)[C@H](O)[C@@H]1O` the Potency was inconclusive: 1.12 µM [inhibitor, full curve]. With `COc1cccc(C(c2nnnn2Cc2ccccc2)N2CCN(C3CCCC3)CC2)c1OC` (configuration not stated) the Potency was inconclusive: 25.1 µM [inhibitor, single point]. With `Cc1cccnc1NC(=O)c1ccc(S(=O)(=O)NCc2ccco2)cc1` the Potency was “inactive”. For `Cc1cc(C)cc(N(C)S(=O)(=O)c2nnc(NC(=O)C(C)C)s2)c1`, the Potency was inconclusive: 0.708 µM [activator, single point]. With `COc1ccc(/C(C)=N/NC(=S)NCCc2ccccc2)cc1` the Potency was inconclusive: 1 µM [inhibitor, single point]. In the case of `Cc1nn(C)c(C)c1NC(=S)Nc1ccc(S(=O)(=O)Nc2ncccn2)cc1`, the Potency was “inactive”. With `CCOc1ccc(-c2nnn(CCC(=O)O)n2)cc1OC` the Potency was inconclusive: 6.51 µM [inhibitor, single point].
